Results deposited as PubChem BioAssay AID1224826 (NIAID, 2016).
Screen: 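Knock-downs that raise or lower Tnf reporter signal after endotoxin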 (primary screen). Cells: RAW264.7 G9 macrophages from mouse bearing reporters for p65 (GFP) and the Tnf promoter (mCherry). Reagent: siRNA pool against mouse genes, 100 nM. Time to read-out: 16 h of LPS stimulation, after 2 days of siRNA transfection. Conditions: bacterial lipopolysaccharide (Salmonella minnesota R595), 10 ng/ml. Read-out: 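Nuclear mCherry signal of the Tnf promoter reporter measured by imaging after background removal, scaled to each plate median and turned into robust z-scores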. Direction: Tnf reporter robust z-score: higher = stronger Tnf promoter reporter signal after LPS. Hit rule: 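Called active when robust z-score is at most -1.3, matching the median of the Tlr4 knock-down control, or over 3; control wells and wells with under 50 cells never active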. Meaning of the calls: active = Tnf reporter clearly lowered or raised; inactive = no clear change in Tnf reporter.
Here is an unselected part of about 17,000 reagents tested. About 1,110 of them (6.6%) count as active. 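Active means lowered or raised reporter signal; replicate intensities are raw and not normalised per plate.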 A number with no mark means an inactive call. Further read-outs or replicates are left out here. Reagent sequences are not shown.

Which result is listed for Gstcd (glutathione S-transferase, C-terminal domain containing)?
Tnf reporter robust z-score: 1.42; fewer than 50 cells in well: enough cells in well

Which result is listed for Scnn1b (sodium channel, nonvoltage-gated 1 beta)?
Tnf reporter robust z-score: 0.01; fewer than 50 cells in well: enough cells in well

What is on record for Gpr85 (G protein-coupled receptor 85)?
Tnf reporter robust z-score: -0.21; fewer than 50 cells in well: enough cells in well

What is on record for Wdr17 (WD repeat domain 17)?
Tnf reporter robust z-score: 0.65; fewer than 50 cells in well: enough cells in well

How did the screen score Or2n1c (olfactory receptor family 2 subfamily N member 1C)?
Tnf reporter robust z-score: -0.34; fewer than 50 cells in well: enough cells in well

How did the screen score Or5h26 (olfactory receptor family 5 subfamily H member 26)?
Tnf reporter robust z-score: -1.1; fewer than 50 cells in well: enough cells in well

What is on record for Tmx3 (thioredoxin-related transmembrane protein 3)?
Tnf reporter robust z-score: 2.03; fewer than 50 cells in well: enough cells in well

How did the screen score Krit1 (KRIT1, ankyrin repeat containing)?
Tnf reporter robust z-score: -0.13; fewer than 50 cells in well: enough cells in well

What did the screen give for Supv3l1 (suppressor of var1, 3-like 1 (S. cerevisiae))?
Tnf reporter robust z-score: -0.86; fewer than 50 cells in well: enough cells in well

What is on record for Or1e23 (olfactory receptor family 1 subfamily E member 23)?
Tnf reporter robust z-score: 0.16; fewer than 50 cells in well: enough cells in well

What did the screen give for Usp33 (ubiquitin specific peptidase 33)?
Tnf reporter robust z-score: 0.65; fewer than 50 cells in well: enough cells in well

For Star (steroidogenic acute regulatory protein), what was measured?
Tnf reporter robust z-score: -0.39; fewer than 50 cells in well: enough cells in well

2 entries already listed, arranged by “Tnf reporter robust z-score”, descending.
Tmx3 (thioredoxin-related transmembrane protein 3) → Tnf reporter robust z-score: 2.03; fewer than 50 cells in well: enough cells in well
Krit1 (KRIT1, ankyrin repeat containing) → Tnf reporter robust z-score: -0.13; fewer than 50 cells in well: enough cells in well
